Some of the results follow. Rule as the data show it: active = 2-fold of DMSO or more and inactive = the rest. Single values of this set are uncertain. Some low values are a fixed figure set by the source, not a measured ratio.
Tested on: CM7/1-hgem mouse ES cell-derived cardiomyocytes
Assay: maximal number of mAG-hGem(1/110)-positive cardiomyocytes over 96 h, fold-change vs DMSO; higher = more cardiomyocyte cell cycle activity
Conditions: 1 µM; 96 (max over 12 h time points) h

Row | Compound | maximal number
1 | CN(C)c1cc(NC(=O)CNC(C)(C)C)c(O)c2c1C[C@H]1C[C@H]3[C@H](N(C)C)C(O)=C(C(N)=O)C(=O)[C@@]3(O)C(O)=C1C2=O | inactive: 1
2 | O=C1c2ccccc2C(=O)c2c1ccc(O)c2O | inactive: 0.5
3 | COc1ccc(O)cc1 | inactive: 0.5
4 | Cc1cc(OC(=O)c2c(C)cc(O)cc2O)cc(O)c1C(=O)O | inactive: 1
5 | CC1CCc2c(N3CCC(O)CC3)c(F)cc3c(=O)c(C(=O)O)cn1c23 (configuration not stated) | inactive: 1
6 | COc1c2ccoc2c(OC)c2oc(=O)ccc12 | inactive: 1
7 | CCN(CC)CCOC(=O)C(c1ccccc1)C1CCCCC1 (configuration not stated) | inactive: 1
8 | Cc1cccc(C(=O)O)c1O | inactive: 1
9 | COc1ccc2c(c1)OCC(Cc1ccc(OC)c(OC)c1)C2=O (configuration not stated) | inactive: 1
10 | COc1ccc([C@@H]2Sc3ccccc3N(CCN(C)C)C(=O)[C@@H]2OC(C)=O)cc1 | inactive: 1
11 | C#CCCCCCCCCCCCC(O)CC(O)COC(C)=O (configuration not stated) | inactive: 1
12 | O=C1CC[C@@H](C(=O)O)N1 | inactive: 1
13 | Cc1cc(O)c(C=O)c2c1C(=O)Oc1c(COC(=O)/C=C/C(=O)O)c(O)c(C(=O)O)c(C)c1O2 | inactive: 1
14 | COc1cc(OC)cc(OC)c1 | inactive: 1
15 | COc1cc(-c2coc3cc(OCc4ccccc4)c(OC)c(O)c3c2=O)cc(OCc2ccccc2)c1OC | inactive: 1
16 | C=CC(C1=CC(=O)C(OC)=CC1=O)c1ccc(OC)cc1 (configuration not stated) | inactive: 0
17 | COc1ccc(C(=O)c2ccc(O)cc2)c(O)c1O | inactive: 1
18 | COc1ccc(-c2coc3c(O)c(OC)ccc3c2=O)cc1 | inactive: 1
19 | Cc1cccc(C)c1NC(=O)c1ccccc1C(=O)O | inactive: 0.5
20 | CCCCCOC(=O)Nc1nc(=O)n([C@@H]2O[C@H](C)[C@@H](O)[C@H]2O)cc1F | inactive: 1
21 | CC(C)OC(=O)C(C)(C)Oc1ccc(C(=O)c2ccc(Cl)cc2)cc1 | inactive: 1
22 | COc1ccc2nc3cc(Cl)ccc3c(Nc3cc(CN4CCCC4)c(O)c(CN4CCCC4)c3)c2n1 | inactive: 1
23 | O=C(O)/C=C/c1ccc(O)c(O)c1 | inactive: 1
24 | CC(C)CCCC(C)C1CCC2C3CCC4CCCCC4(C)C3CCC12C (configuration not stated) | inactive: 1

Individual results from the results shown.
For maximal number, CC(C)OC(=O)C(C)(C)Oc1ccc(C(=O)c2ccc(Cl)cc2)cc1 is listed with inactive: 1
For maximal number, C=CC(C1=CC(=O)C(OC)=CC1=O)c1ccc(OC)cc1 (configuration not stated) is listed with inactive: 0

Further structures.

Row | Compound | maximal number
25 | CCCCCN(CCCCC)C(=O)C(CCC(=O)O)NC(=O)c1ccc(Cl)c(Cl)c1 (configuration not stated) | inactive: 0
26 | Nc1[nH]cnc2ncnc1-2 | inactive: 1
27 | O=C(O)c1cc(O)c(=O)c2c(O)c(O)ccc2c1 | inactive: 1
28 | O=NN(CCCl)C(=O)NC1CCCCC1 | inactive: 1
29 | COc1cc2c(cc1OC)C1C(=O)c3c(O)cc4c(c3OC1CO2)C=CC(C)(C)O4 (stereo not drawn) [alpha-TOXICAROL (dl)] | inactive: 1
30 | C=CCc1ccc(OC(=O)c2ccccc2)c(OC)c1 | inactive: 0
31 | COc1cc2ncnc(Nc3ccc(F)c(Cl)c3)c2cc1OCCCN1CCOCC1 | inactive: 1
32 | OCC(O)C(O)C(O)C(O)C(O)CO (configuration not stated) | inactive: 0.5
33 | Cc1nc2n(c(=O)c1CCN1CCC(c3noc4cc(F)ccc34)CC1)CCCC2O (configuration not stated) | inactive: 1
34 | CN1CCC(=C2c3ccccc3Sc3ccccc32)CC1 | inactive: 1
35 | Cc1cn([C@H]2C[C@H](N=[N+]=[N-])[C@@H](CO)O2)c(=O)[nH]c1=O | inactive: 1
36 | N=c1ccn2c(n1)O[C@H]1[C@H](O)[C@@H](CO)O[C@H]12 | inactive: 1
37 | COc1ccc(C[C@H](N)C(=O)N[C@H]2[C@@H](O)[C@H](n3cnc4c(N(C)C)ncnc43)O[C@@H]2CO)cc1 | inactive: 1
38 | CC(C(=O)O)c1cccc(Oc2ccccc2)c1 (configuration not stated) | inactive: 1
39 | COC(=O)Oc1ccccc1C(=O)O | inactive: 1
40 | COc1cc2c(N3CCN(C(=O)Nc4ccc(OC(C)C)cc4)CC3)ncnc2cc1OCCCN1CCCCC1 | inactive: 1
41 | NC1=NCCN1CC(=O)O | inactive: 1
42 | CC(=O)OC1CCC2(C)C3=C(CC[C@H]2C1(C)C)[C@@]1(C)CC[C@@H]([C@@H](C)CCC=C(C)C)[C@]1(C)CC3 (some centres not stated) | inactive: 1
43 | COc1ccc2c(c1)OC/C(=C\c1ccc(OC)c(O)c1)C2=O | inactive: 1
44 | CCCCC(=O)Oc1ccccc1C(=O)O | active: 3
45 | CC(CCc1ccc(O)cc1)NCC(O)c1ccc(O)cc1 (configuration not stated) | inactive: 1
46 | COC1(C)CCC2OC2(C)CCC2C1CC2(C)C (configuration not stated) | inactive: 0
47 | CC(=O)O[C@H]1C[C@@H](OC(C)=O)C(C)(C)[C@@H]2C[C@@H](OC(C)=O)[C@]3(C)[C@H](CC[C@@]4(C)[C@H](c5ccoc5)OC(=O)[C@H]5O[C@@]534)[C@@]12C | inactive: 1
